Assay results: paper PMC9136845
No constants are given. Whether binding was seen depends on the method and setting. In cells and extracts the contact can be indirect. These calls come from enrichment with a bait or labelling near it, and not all partners need be listed.

Protein sequences, listed by entry. Tags and fused reporters are not part of them.
UniProt A6NHQ4: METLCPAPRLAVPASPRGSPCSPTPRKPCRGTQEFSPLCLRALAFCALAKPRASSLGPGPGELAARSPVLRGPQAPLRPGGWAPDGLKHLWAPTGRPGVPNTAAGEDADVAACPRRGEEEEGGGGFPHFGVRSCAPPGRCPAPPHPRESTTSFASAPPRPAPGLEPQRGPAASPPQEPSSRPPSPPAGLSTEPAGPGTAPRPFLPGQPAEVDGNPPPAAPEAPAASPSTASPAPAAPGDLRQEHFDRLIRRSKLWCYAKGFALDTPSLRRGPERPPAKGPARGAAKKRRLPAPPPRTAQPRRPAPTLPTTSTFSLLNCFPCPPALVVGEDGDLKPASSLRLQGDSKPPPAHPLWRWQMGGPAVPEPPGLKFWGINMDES
UniProt Q9Y483: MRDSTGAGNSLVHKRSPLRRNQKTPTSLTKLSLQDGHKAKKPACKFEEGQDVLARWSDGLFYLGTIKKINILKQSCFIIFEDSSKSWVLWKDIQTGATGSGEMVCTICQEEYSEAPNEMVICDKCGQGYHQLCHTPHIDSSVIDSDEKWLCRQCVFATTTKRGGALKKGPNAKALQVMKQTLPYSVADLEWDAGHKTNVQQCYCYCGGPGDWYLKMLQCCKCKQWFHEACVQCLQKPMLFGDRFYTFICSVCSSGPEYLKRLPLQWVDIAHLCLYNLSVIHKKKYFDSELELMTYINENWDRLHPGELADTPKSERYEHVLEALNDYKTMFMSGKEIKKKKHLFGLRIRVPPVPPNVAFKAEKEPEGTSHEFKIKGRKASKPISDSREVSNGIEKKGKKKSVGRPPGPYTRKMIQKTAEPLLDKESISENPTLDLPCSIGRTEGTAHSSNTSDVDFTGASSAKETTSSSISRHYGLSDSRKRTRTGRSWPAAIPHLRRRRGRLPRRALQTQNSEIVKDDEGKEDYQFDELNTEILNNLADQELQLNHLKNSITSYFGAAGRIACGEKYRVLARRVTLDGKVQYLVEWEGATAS

What was measured:
[1] = molecular target: embryonic ectoderm development (EED) GFP-fusion protein (UniProt O75530); assay: affinity purification with mass spectrometry; GFP enrichment with antifouling pSB-co-(aGFP)8% beads (~93 million beads) from 1 mg nuclear extract of EED-GFP HeLa cells, WT HeLa nuclear extract as control; 90 min at 4 °C in nuclei lysis buffer (420 mM NaCl, 20 mM HEPES/KOH pH 7.9, 0.1% NP40); on-bead trypsin digestion, label-free nanoLC-MS/MS, triplicates
[2] = molecular target: embryonic ectoderm development (EED) GFP-fusion protein (UniProt O75530); assay: affinity purification with mass spectrometry; GFP enrichment with Chromotek GFP-Trap magnetic beads (~93 million beads, 50 μL slurry) from 1 mg nuclear extract of EED-GFP HeLa cells, WT HeLa nuclear extract as control; 90 min at 4 °C in nuclei lysis buffer (420 mM NaCl, 20 mM HEPES/KOH pH 7.9, 0.1% NP40); on-bead trypsin digestion, label-free nanoLC-MS/MS, triplicates

binding [1] | binding [2] | Substance
binds | binds | C17orf96 (from UniProt A6NHQ4 1-379)
binds | binds | PCL2 (from UniProt Q9Y483 1-593)
binds | binds | PCL3 (from UniProt Q5T6S3 1-580)
